From PMC9106668
Results are given in words; binding and its absence hold for the method and conditions named. Some results given as binding are weak or reduced against the parent protein; the word gives no strength.

Biological target: CTTNBP2_(104–271) (UniProt B9EJA2)
Experiment: zinc-induced pelleting assay (centrifugation, SDS-PAGE); recombinant CTTNBP2 (104-271) incubated with different concentrations of ZnCl2 for 1 h at 4 °C, centrifuged; pellet and supernatant on SDS-PAGE, Coomassie blue; both purified

binding: binds
B1: CTTNBP2_(104–271) (domain or fragment, UniProt B9EJA2 104-271)
chain: TNPLSILEAVMAHCRKMQERMSAQLVAAESRQKKLEMEKLQLQALEQEHKKLAAHLEEERGKNKHVVLMLVKECKQLSGKVVEEAQKLEEVMAQLEEEKKKTSELEEQLSAEKQRSSGMEAQLEKQLSEFDTEREQLRAKLSREEAHTTDLKEEIDKMKKMMEQMKKG
